In test [1] the target is T1, HA-tagged human CRP2, expressed in HSFs (human) (UniProt Q16527).
T1 sequence: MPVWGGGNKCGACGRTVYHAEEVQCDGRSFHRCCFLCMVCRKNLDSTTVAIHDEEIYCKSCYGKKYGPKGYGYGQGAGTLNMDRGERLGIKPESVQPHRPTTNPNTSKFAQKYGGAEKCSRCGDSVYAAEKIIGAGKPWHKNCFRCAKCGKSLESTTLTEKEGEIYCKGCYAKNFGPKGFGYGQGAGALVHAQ
The test can be described thus: co-IP; whole-cell extracts of HSFs transfected with Flag-MRTF-A and HA-CRP2 plasmids, immunoprecipitated with control gel, anti-HA affinity matrix or anti-Flag M2 gel, immunoblot. On the technique in general: In western blotting, separated proteins are transferred to a membrane and probed.

Test [2] addresses T2, Myc-tagged human SRF (serum response factor), in vitro translated (human) (UniProt P11831).
T2 sequence: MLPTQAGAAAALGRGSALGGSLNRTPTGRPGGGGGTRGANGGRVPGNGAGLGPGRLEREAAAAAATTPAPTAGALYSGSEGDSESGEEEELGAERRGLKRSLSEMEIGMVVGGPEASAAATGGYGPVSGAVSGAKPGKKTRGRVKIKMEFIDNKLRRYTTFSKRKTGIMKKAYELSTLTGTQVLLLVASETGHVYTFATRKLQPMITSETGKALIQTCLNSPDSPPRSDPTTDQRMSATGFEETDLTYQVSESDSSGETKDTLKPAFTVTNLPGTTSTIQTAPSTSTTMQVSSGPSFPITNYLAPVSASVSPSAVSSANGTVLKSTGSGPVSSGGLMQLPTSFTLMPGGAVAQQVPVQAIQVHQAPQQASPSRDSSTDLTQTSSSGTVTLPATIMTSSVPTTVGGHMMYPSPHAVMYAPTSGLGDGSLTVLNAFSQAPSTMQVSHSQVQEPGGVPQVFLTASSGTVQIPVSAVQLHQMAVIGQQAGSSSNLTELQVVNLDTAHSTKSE
The test can be described thus: DNA affinity binding assay; biotinylated 3xCArG probe on Streptavidin M-280 Dynabeads incubated with in vitro translated proteins at 4°C for 3 hours with rotation; probe-bound proteins detected by immunoblot; control Dynabeads and free 3xCArG as controls.

The target in test [3] is T3, human CRP2 SRR mutant (human) (UniProt Q16527).
T3 sequence: T1 sequence with S120A, R121V, R145A
Kind of test: co-IP; in vitro protein binding assay: mixtures (500 ul) of in vitro translated tagged proteins (wheat germ extract) immunoprecipitated with anti-HA affinity matrix or anti-Flag M2 gel (control gel beside), immunoblot; relative binding affinity normalised to the control = 100%.

For test [4], the target named is T4, HA-CRP2ΔC (2-100 amino acids) (human) (UniProt Q16527).
T4 sequence: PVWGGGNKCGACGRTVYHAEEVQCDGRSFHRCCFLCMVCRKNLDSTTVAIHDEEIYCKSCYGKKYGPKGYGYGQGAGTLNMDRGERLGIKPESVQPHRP
Described as above.

Test [5] addresses T5, HA-CRP2ΔN (101-193 amino acids) (human) (UniProt Q16527).
T5 sequence: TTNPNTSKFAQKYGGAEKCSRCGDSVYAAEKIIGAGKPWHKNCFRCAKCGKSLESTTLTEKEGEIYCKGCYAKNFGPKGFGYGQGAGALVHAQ
The test is described as above.

For test [6], the target named is T6, HA-tagged human CRP2 (cysteine-and glycine-rich protein 2), in vitro translated (human) (UniProt Q16527).
T6 sequence: T1 sequence
Described as above.

Substitutions are numbered along the chain they refer to. No constants are given. Whether binding was seen depends on the method and setting. Binding calls can cover weak binding; strength is not graded here. For some of these results: Sequences can lack the tags named with a protein. For some of these results: Binding seen in cells or lysates may run through a third protein.

For the substance “Flag-tagged mouse MRTF-A (MAL fl), expressed in HSFs”, the binding entry in test [1] is reported as “binds”.

Take “Flag-tagged mouse MRTF-A (MAL fl), in vitro translated”: the binding result in test [2] is recorded as “binds”; in test [3], “binds”; in test [4], “binds weakly”; in test [5] it was “binds”; in test [6], “binds”.

As to “Flag-MAL fl D477-C, C-terminal domain of mouse MRTF-A (477-1021 amino acids) (domain or fragment)”, in test [6], the binding result is “binds”.

Values taken from paper PMC10721955.
